# Assay results from the supplement of paper PMC7830784.
# Counter-ions that a name gives are not always drawn. Some of the results follow. Most values lie within the scatter of the assay; repeated measurements hardly agree. Non-standard residues stand in square brackets, D forms with d. Residues, ends and D or L forms follow the SMILES beside them. pGlu = O=C1CC[C@@H](C(=O)O)N1; Thz = O=C(O)[C@@H]1CSCN1
# Test system: Brugia pahangi adult female
# Experiment: motility inhibition on day 3 relative to DMSO vehicle; higher = more active
# Conditions: 10 µM; 3 days
row,Structure (SMILES),motility inhibition on day 3
1,Nc1ncnc2c1ncn2[C@@H]1O[C@H](CO)[C@@H](O)[C@@H]1O [vidarabine],0.131%
2,CCOc1nc2cccc(C(=O)O)c2n1Cc1ccc(-c2ccccc2-c2nnn[nH]2)cc1 [candesartan],18.6%
3,CC[C@H](C)[C@H](N)C(=O)O [isoleucine (l)],18.4%
4,CN(C)CCC(c1ccc(Br)cc1)c1ccccn1 (centres undefined) [brompheniramine maleate],16.2%
5,O=C1CC[C@@H](C(=O)N2CSC[C@H]2C(=O)O)N1 [pidotimod] ([pGlu]-[Thz]-OH),< 0%
6,Oc1c(Cl)cc(Cl)c2cccnc12 [chloroxine],84.5%
7,c1ccc(-c2ccc(C(c3ccccc3)n3ccnc3)cc2)cc1 (centres undefined) [bifonazole],24%
8,COC(=O)C1=C(C)NC(C)=C(C(=O)OC(C)(C)CN(C)CCC(c2ccccc2)c2ccccc2)C1c1cccc([N+](=O)[O-])c1 (centres undefined) [Lercanidipine],99.9%
9,CCC1(c2ccccc2)C(=O)NCNC1=O [Primidone],< 0%
10,CC(=O)OC[C@H]1O[C@@H]([S-])[C@H](OC(C)=O)[C@@H](OC(C)=O)[C@@H]1OC(C)=O.CCP(CC)CC.[Au+] [Auranofin],99.8%
11,COC(=O)[C@H](Cc1ccccc1)NC(=O)[C@@H](N)CC(=O)O [aspartame] (H-Asp-Phe-OMe),15.6%
12,CO/N=C(\C(=O)N[C@@H]1C(=O)N2C(C(=O)O)=C(COC(C)=O)CS[C@H]12)c1csc(N)n1 [cefotaxime sodium],8.33%
13,C[C@]12CC[C@@H]3c4ccc(O)cc4C[C@@H](CCCCCCCCC[S+]([O-])CCCC(F)(F)C(F)(F)F)[C@H]3[C@@H]1CC[C@@H]2O (some centres undefined) [Fulvestrant],35.9%
14,C[C@]12CC[C@@H]3c4ccc(O)cc4C[C@@H](CCCCCCCCC[S+]([O-])CCCC(F)(F)C(F)(F)F)[C@H]3[C@@H]1CC[C@@H]2O (some centres undefined) [fulvestrant],5.94%
15,COc1cc(CNC(=O)CCCC/C=C/C(C)C)ccc1O [e-capsaicin],12.8%
16,O=C(NCCCN1CCOCC1)c1ccc(Cl)cc1 [eprobemide],4.51%
17,O=C(CCCl)NCCc1ccccc1 [fenaclon],46.8%
18,Clc1ccc2nsnc2c1NC1=NCCN1 [Tizanidine hydrochloride],10.7%
19,CC(C)Oc1ccc2c(=O)c(-c3ccccc3)coc2c1 [ipriflavone],23.5%
20,CC(=O)Nc1c(I)cc(I)c(C(=O)O)c1I [acetriazoic acid],< 0%
21,Cc1cc2cc3c(C)cc(=O)oc3c(C)c2o1 [trioxsalen],5.24%
22,CC(=O)Nc1nnc(S(N)(=O)=O)s1 [Acetazolamide],< 0%
23,C[N+](C)(C)CC(O)CC(=O)[O-] (centres undefined) [carnitine hydrochloride],17.9%
24,CCCCOc1cc(C(=O)OCCN(CC)CC)ccc1N [benoxinate hydrochloride],< 0%
25,CCCCCCOc1ccccc1C(N)=O [exalamide],35.7%

row,Structure (SMILES),motility inhibition on day 3
1,CCN(CC)CCNC(=O)c1ccc(N)cc1 [Procainamide hydrochloride],< 0%
2,NC[C@H](O)c1ccc(O)c(O)c1 [norepinephrine],14.7%
3,O=C(O)C1=C(CSc2nnnn2CS(=O)(=O)O)CS[C@@H]2[C@H](NC(=O)[C@H](O)c3ccccc3)C(=O)N12 [Cefonicid sodium],21.5%
4,O=C(O)C1=C(CSc2nnnn2CS(=O)(=O)O)CS[C@@H]2[C@H](NC(=O)[C@H](O)c3ccccc3)C(=O)N12 [cefonicid sodium],8.56%
5,Cc1ccc(-c2cc(C(F)(F)F)nn2-c2ccc(S(N)(=O)=O)cc2)cc1 [celecoxib],6.27%
6,CC(C)[N+]1(C)[C@@H]2CC[C@H]1C[C@@H](OC(=O)C(CO)c1ccccc1)C2 (some centres undefined) [ipratropium bromide],3.29%
7,Nc1ccc(S(=O)(=O)Nc2nccs2)cc1 [sulfathiazole],2.68%
8,CN[C@H]1CC[C@@H](c2ccc(Cl)c(Cl)c2)c2ccccc21 [sertraline hydrochloride],0.673%
9,CC[C@H]1OC(=O)[C@H](C)[C@@H](O[C@H]2C[C@@](C)(OC)[C@@H](O)[C@H](C)O2)[C@H](C)[C@@H](O[C@@H]2O[C@H](C)C[C@H](N(C)C)[C@H]2O)[C@](C)(O)C[C@@H](C)CN(C)[C@H](C)[C@@H](O)[C@]1(C)O [azithromycin],1.48%
10,NC[C@H]1O[C@H](O[C@H]2[C@H](O)[C@@H](O[C@H]3O[C@H](CO)[C@@H](O)[C@H](N)[C@H]3O)[C@H](N)C[C@@H]2N)[C@H](N)C[C@@H]1O [tobramycin],3.84%
11,C=CCOc1ccccc1OCC(O)CNC(C)C (centres undefined) [Oxprenolol hydrochloride],2.97%
12,O=C(O)c1ccc[n+]([O-])c1 [oxiniacic acid],4.85%
13,CCOC(=O)/C=C(C)/C=C/C=C(C)/C=C/c1c(C)cc(OC)c(C)c1C [Etretinate],12.1%
14,CCOC(=O)Nc1nc2ccccc2[nH]1 [lobendazole],28.2%
15,CC(=O)Nc1ccc(OC(=O)c2ccccc2O)cc1 [acetaminosalol],< 0%
16,COc1cc2nc(N3CCN(C(=O)C4COc5ccccc5O4)CC3)nc(N)c2cc1OC (centres undefined) [doxazosin mesylate],32.9%
17,O=C(CCBr)N1CCN(C(=O)CCBr)CC1 [pipobroman],1.2%
18,N[C@H]1CONC1=O [levcycloserine],19.3%
19,CCCCC1C(=O)N(c2ccccc2)N(c2ccc(O)cc2)C1=O (centres undefined) [oxyphenbutazone],39%
20,CC#CCn1c(N2CCC[C@@H](N)C2)nc2c1c(=O)n(Cc1nc(C)c3ccccc3n1)c(=O)n2C [linagliptin],10.2%
21,CCN(CC)CCOCCOC(=O)C1(c2ccccc2)CCCC1 [Carbetapentane citrate],18.3%
22,Cc1cc(C(C)(C)C)cc(C)c1CC1=NCCN1 [xylometazoline hydrochloride],7.66%
23,CCN(CC)C(=O)C1(c2ccccc2)CC1CN (centres undefined) [milnacipran hydrochloride],4.1%
24,CCN(CCCCOC(=O)c1ccc(OC)c(OC)c1)C(C)Cc1ccc(OC)cc1 (centres undefined) [mebeverine hydrochloride],8.41%
25,CC(C)(CO)[C@@H](O)C(=O)NCCC(=O)O [pantothenic acid(d) na salt],< 0%

row,Structure (SMILES),motility inhibition on day 3
1,O=P(O)(O)C(O)(Cn1ccnc1)P(=O)(O)O [Zoledronic acid],< 0%
2,CC#C[C@]1(O)CC[C@H]2[C@@H]3CCC4=CC(=O)CCC4=C3[C@@H](c3ccc(N(C)C)cc3)C[C@@]21C [mifepristone],2.32%
3,COc1ccc(Cl)cc1C(=O)NCCc1ccc(S(=O)(=O)NC(=O)NC2CCCCC2)cc1 [Glibenclamide],14.2%
4,Nc1nc(=O)n([C@@H]2CS[C@H](CO)O2)cc1F [Emtricitabine],9.46%
5,CCCOc1ccccc1-c1nc2[nH]nnc2c(=O)[nH]1 [Zaprinast],29.8%
6,CCCCCCNC(=O)n1cc(F)c(=O)[nH]c1=O [carmofur],< 0%
7,COC(=O)N/N=C/c1c[n+]([O-])c2ccccc2[n+]1[O-] [carbadox],14.7%
8,CN(C(=O)CN(CCO)CC(=O)N(C)C(C)(C)Cc1ccccc1)C(C)(C)Cc1ccccc1 [oxethazaine],< 0%
9,Cc1cc(C)nc(NS(=O)(=O)c2ccc(N)cc2)n1 [sulfamethazine],< 0%
10,CC1(C)O[C@@H]2C[C@H]3[C@@H]4C[C@H](F)C5=CC(=O)C=C[C@]5(C)[C@@]4(F)[C@@H](O)C[C@]3(C)[C@]2(C(=O)CO)O1 [fluocinolone acetonide],25.3%
11,CCCCCCCC/C=C\CCCCCCCC(=O)O.NCCO [ethanolamine oleate],45.2%
12,COc1cc(NS(=O)(=O)c2ccc(N)cc2)ncn1 [sulfamonomethoxine],9.98%
13,O=C(Nc1ccc([N+](=O)[O-])cc1Cl)c1ccccc1O,99.8%
14,CC(C)[C@H](N)C(=O)OCCOCn1cnc2c(=O)nc(N)[nH]c21 [valacyclovir hydrochloride],18.5%
15,C[C@@H]1C/C=C/C=C/C=C/C=C/[C@H](O[C@@H]2O[C@H](C)[C@@H](O)[C@H](N)[C@@H]2O)C[C@@H]2O[C@](O)(C[C@@H](O)C[C@H]3O[C@@H]3/C=C/C(=O)O1)C[C@H](O)[C@H]2C(=O)O [natamycin],25%
16,CCOC(=O)CN[C@@H](C(=O)N1CC[C@H]1C(=O)NCc1ccc(/C(N)=N\O)cc1)C1CCCCC1 [Ximelagatran],23.5%
17,C[C@H](CS)C(=O)N1CCC[C@H]1C(=O)O [Captopril],15.9%
18,CN(Cc1cc(Br)cc(Br)c1N)C1CCCCC1 [bromhexine hydrochloride],13%
19,CC1(C)O[C@@H]2C[C@H]3[C@@H]4C[C@H](F)C5=CC(=O)C=C[C@]5(C)[C@H]4[C@@H](O)C[C@]3(C)[C@]2(C(=O)CO)O1 [flunisolide],< 0%
20,NCCc1ccc(O)c(O)c1 [Dopamine hydrochloride],1.18%
21,CC[C@H](c1ccc(O)cc1)[C@@H](CC)c1ccc(O)cc1 [hexestrol],< 0%
22,Cc1c(Nc2ncccc2C(=O)O)cccc1C(F)(F)F [flunixin meglumine],0.835%
23,CC(=O)OCC(=O)[C@@]1(O)CC[C@H]2[C@@H]3CCC4=CC(=O)C=C[C@]4(C)[C@H]3[C@@H](O)C[C@@]21C [prednisolone acetate],< 0%
24,C[C@]12CCC(=O)C=C1CC[C@@H]1[C@@H]2[C@@H](O)C[C@@]2(C)[C@H]1CC[C@]2(O)C(=O)COP(=O)(O)O [hydrocortisone sodium phosphate],38%
